According to publication PMC3760629:
Results are given in words; binding and its absence hold for the method and conditions named. Binding seen in cells or lysates may run through a third protein. Some entries that bind do so weakly or less than the wild type.

Chains of the proteins cited; added tags and fusions are not shown.
UniProt Q9UKV8: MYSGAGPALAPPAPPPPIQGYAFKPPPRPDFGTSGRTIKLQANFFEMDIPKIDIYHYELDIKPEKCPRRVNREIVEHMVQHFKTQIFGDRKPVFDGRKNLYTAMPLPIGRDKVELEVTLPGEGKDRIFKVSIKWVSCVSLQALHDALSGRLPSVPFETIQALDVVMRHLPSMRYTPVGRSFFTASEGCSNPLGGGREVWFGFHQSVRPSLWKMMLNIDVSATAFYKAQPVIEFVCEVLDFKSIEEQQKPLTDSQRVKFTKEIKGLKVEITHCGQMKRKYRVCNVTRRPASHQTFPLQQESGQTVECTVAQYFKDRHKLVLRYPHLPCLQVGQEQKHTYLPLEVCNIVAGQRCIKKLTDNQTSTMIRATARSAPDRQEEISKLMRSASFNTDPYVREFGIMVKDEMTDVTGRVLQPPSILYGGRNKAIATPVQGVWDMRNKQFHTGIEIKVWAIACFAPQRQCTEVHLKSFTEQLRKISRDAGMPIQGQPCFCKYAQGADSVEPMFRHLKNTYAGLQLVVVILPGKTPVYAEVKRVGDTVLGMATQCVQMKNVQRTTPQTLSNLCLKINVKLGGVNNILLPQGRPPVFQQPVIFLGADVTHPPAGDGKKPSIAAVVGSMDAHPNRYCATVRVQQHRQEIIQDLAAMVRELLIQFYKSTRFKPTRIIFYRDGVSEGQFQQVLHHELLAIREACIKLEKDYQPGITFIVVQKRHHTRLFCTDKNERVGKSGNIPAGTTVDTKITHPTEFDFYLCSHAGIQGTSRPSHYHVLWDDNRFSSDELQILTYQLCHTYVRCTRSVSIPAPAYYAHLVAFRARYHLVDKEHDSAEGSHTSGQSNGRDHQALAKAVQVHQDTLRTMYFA
UniProt Q8NDV7: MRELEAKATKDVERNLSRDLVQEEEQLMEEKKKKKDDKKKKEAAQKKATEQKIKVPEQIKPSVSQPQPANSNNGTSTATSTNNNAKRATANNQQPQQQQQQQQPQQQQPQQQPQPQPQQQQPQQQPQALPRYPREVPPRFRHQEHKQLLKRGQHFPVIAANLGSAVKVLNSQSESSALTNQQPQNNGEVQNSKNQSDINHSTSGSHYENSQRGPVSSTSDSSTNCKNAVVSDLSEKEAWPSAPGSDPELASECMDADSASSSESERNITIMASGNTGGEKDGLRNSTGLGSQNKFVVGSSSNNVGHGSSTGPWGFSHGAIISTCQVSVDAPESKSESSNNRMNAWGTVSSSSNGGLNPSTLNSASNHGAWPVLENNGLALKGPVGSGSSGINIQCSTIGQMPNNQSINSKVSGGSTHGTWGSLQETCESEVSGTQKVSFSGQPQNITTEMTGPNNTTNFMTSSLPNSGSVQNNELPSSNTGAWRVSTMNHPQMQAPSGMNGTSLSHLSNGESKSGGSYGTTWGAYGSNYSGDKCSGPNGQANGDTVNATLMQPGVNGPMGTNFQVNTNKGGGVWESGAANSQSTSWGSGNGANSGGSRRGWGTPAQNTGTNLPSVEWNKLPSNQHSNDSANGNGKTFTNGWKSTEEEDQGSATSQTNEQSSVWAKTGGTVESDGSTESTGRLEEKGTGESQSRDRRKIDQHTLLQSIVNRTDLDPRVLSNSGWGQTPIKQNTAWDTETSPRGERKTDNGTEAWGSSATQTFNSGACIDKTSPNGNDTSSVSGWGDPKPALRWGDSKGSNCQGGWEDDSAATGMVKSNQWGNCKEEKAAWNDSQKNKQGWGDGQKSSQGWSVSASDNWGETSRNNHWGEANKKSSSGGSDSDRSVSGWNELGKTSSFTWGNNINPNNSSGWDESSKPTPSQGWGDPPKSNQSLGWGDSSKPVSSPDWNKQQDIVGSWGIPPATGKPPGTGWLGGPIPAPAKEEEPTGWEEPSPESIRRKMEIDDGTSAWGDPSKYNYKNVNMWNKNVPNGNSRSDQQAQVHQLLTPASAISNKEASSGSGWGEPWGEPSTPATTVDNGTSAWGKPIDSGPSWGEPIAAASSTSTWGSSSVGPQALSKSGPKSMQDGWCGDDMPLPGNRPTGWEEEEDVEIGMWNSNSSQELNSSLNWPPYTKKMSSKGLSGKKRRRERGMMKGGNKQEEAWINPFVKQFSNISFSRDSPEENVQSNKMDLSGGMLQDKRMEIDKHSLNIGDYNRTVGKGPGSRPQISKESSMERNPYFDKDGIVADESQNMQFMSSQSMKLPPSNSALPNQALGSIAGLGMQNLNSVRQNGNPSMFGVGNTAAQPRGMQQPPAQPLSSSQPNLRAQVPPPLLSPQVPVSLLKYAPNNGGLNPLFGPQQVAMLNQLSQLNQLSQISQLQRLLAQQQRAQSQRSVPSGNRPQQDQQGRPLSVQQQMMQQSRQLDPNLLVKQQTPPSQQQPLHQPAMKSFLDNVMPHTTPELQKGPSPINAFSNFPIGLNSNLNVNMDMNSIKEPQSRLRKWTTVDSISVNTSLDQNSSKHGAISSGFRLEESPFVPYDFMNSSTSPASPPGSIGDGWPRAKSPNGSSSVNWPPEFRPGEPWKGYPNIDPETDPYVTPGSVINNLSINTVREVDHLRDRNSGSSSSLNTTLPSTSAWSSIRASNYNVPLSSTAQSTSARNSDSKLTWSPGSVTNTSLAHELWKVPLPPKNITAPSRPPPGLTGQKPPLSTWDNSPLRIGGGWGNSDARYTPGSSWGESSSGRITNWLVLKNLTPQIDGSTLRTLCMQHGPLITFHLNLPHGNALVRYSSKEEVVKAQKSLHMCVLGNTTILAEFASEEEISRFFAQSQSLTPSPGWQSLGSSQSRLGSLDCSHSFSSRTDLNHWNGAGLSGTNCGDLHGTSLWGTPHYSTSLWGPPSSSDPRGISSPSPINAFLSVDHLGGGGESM

Biological target: Argonaute2 (human (endogenous in human plasma)) (UniProt Q9UKV8)
Assay: co-IP; antibodies directed toward Ago2 and GW182 used to immunoprecipitate the proteins from human plasma; western analysis

## GW182 (from UniProt Q8NDV7 1-1962)
  binding: binds
